At least one structure is not confirmed: it was looked up by name or label, or the drawing left a doubt.
Legend:
[1] = tested on: morphine tolerance in mice; experiment: Morphine tolerance after repeated morphine injections (hotplate, tail-flick); settings: mouse, in vivo
[2] = tested on: morphine-induced place preference in mice; experiment: Conditioned place preference (CPP) to morphine; format: in vivo; settings: 5 mg/kg, morphine 10 mg/kg, after 9 days, FIG. 5

## C=C[C@@]1(C)CC(=O)[C@]2(O)[C@@]3(C)[C@@H](O)CCC(C)(C)[C@@H]3[C@H](O)[C@H](OC(C)=O)[C@@]2(C)O1 [forskolin, reference compound]
[1]
  speed of morphine tolerance: morphine produced tolerance faster
[2]
  morphine-induced place preference: did not produce any inhibitory effect

Reference: US11541060B2, “Pharmaceutical compositions for treating pain” (FOREVER CHEER INTERNATIONAL LIMITED, priority 2017, dated 2023)
